Test results reported in patent US20170107462A1, “ARRAY OF FABRIC TREATMENT PRODUCTS” (The Procter & Gamble Company, priority 2015, published 2017).

Assay: Fragrance Fidelity Index (FFI), expert graders on fabric swatches
[1] = Conc 10 ppm test material on fabric swatch
[2] = Conc 50 ppm test material on fabric swatch

Compound | FFI [1] | FFI [2]
O=C1CCC2CCCCC2O1 (stereo not drawn) [3,4,4a,5,6,7,8,8a-octahydrochromen-2-one] | 0 | 0
CC(C)(C)C1CCCCC1 [4-tert-butyl cyclohexane] | 0 | 0.3
CCCCCCCCCCCCO [Material 174] | – | 0.5
CC(=O)OCCCCCCC(C)C [Material 204] | 0 | 0
CC1(C)CCc2ccc(CCC=O)cc21 [Material 261] | 0 | 1.3
CC(=O)OC1CC2CC1C1CC=CC21 (stereo not drawn) [Material 281] | 0 | 0.5
CCCCCCCCCCCC(=O)OCC [Material 391] | – | 0.3
C=CC(C)=CCC=C(C)C [Material 524] | – | 0
CCC(O)COC1CCCCC1C(C)(C)C (stereo not drawn) [Material 677] | 0 | 1.8
CC(CCO)CCc1ccccc1 (stereo not drawn) [Material 962] | 0 | 0.5
CCOC(=O)OC1C(C)CCC(C)C1C (stereo not drawn) [Material 1005] | – | 0.5
COC(=O)OC1CC/C=C\CCC1 (stereo not drawn) [Material 1139] | 0 | 1.0
C=C1CCC2OC2(C)CCC2C1CC2(C)C (stereo not drawn) [Material 1148] | – | 0.5
CC1(C)C2CCC3(C2)C1C(=O)CCC3(C)C (stereo not drawn) [Material 1149] | 0 | 0.8
CCCCCCCCCCCO [Undecanol] | – | 0.8
